The test is described as follows: qHTS Assay to Find Inhibitors of Chronic Active B-Cell Receptor Signaling. As to conditions: ABC-DLBCL IkBa-CBG/CBR reporter, luminescence ratio (green luciferase fused to IkBa over red control in TMD8 lymphoma cells), 4 h. A digest of the protocol: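 TMD8 ABC-DLBCL cells carrying doxycycline-inducible green luciferase fused to IkappaBalpha plus unfused red luciferase were exposed to compounds (up to 46 uM) for 4 hrs at 37C. Activity came from the overlap-corrected green/red luminescence ratio.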
On the technique in general: Quantitative high-throughput screening tests each substance at several concentrations.

Where [1] appears, read: measured here: CBR red luminescence, cell number.
[2] abbreviates: measured here: IkBa-CBG green luminescence.

The other results are listed elsewhere or left out. These are further read-outs of the screen, such as a control signal, another cell line or another target. No call is given for them. Compounds called inactive in the main read-out are mostly missing here. Words in brackets tell the shape of the fitted curve; partial curves, single points and poor fits give uncertain potencies.

Broadly, the AC50 is the midpoint of the concentration-response curve, whichever way the signal moves. In the case of `O=C(Nc1nnc(COc2ccc(F)cc2)s1)c1cccs1`, the AC50 under setting [1] is 5.8 µM [rising, full curve, poor fit].

As for `CCOc1ccc(NC(=S)N(CCN2CCOCC2)Cc2cc3cc4c(cc3[nH]c2=O)OCCO4)cc1`, the AC50 under setting [1] was 2.24 µM [rising, partial curve, poor fit].

Take `N[C@@H](Cc1ccc(O)cc1)C(=O)Nc1ccc2ccccc2c1`: the AC50 under setting [1] is 1.03 µM [falling, full curve, poor fit].

As to `OC(CNCCc1ccc(Cl)cc1)COc1cc(Cl)ccc1Cl` (stereo unspecified), the AC50 under setting [1] is 14.1 µM [rising, single point].

With `COc1c(Cl)cc(Cl)cc1CNCCNCC(C)O` (stereo unspecified), under setting [1], the AC50 is 1 µM [falling, full curve, poor fit].

As to `CC(C)CNC(=O)/C=C/C=C/c1ccc2c(c1)OCO2`, under setting [1], the AC50 is 20.6 µM [falling, single point].

Consider `CC(/C=N/NC(=O)c1cc(C2CC2)[nH]n1)=C\c1ccccc1`, for which the AC50 under setting [1] was 3.55 µM [rising, partial curve, poor fit].

Regarding `S=C1Nc2cc(Cl)ccc2Sc2ccccc21`, the AC50 under setting [1] was 23.1 µM [rising, single point].

As for `COc1cc(OC)cc(-c2nc(-c3cccs3)no2)c1`, the AC50 under setting [1] was 6.31 µM [rising, partial curve, poor fit].

Take `CC(=O)NCCC(=O)Nc1nc(-c2c[nH]c3ccccc23)cs1`: under setting [1], the AC50 was 35.5 µM [falling, single point].

With `O=C(COC(=O)Cc1ccc(Cl)cc1)NCCc1ccccc1`, under setting [1], the AC50 is 14.6 µM [rising, single point].

In the case of `O=C(O)c1ccc(-c2nc(-c3ccccc3Cl)cs2)cc1`, the AC50 under setting [1] is 0.501 µM [falling, full curve, poor fit].

In the case of `O=C(c1ccco1)N1CCN(S(=O)(=O)c2c(Cl)cccc2Cl)CC1`, under setting [1], the AC50 is 3.16 µM [rising, partial curve, poor fit].

For the molecule `COc1ccc(OC)c(NC(=O)c2ccc(-n3cccn3)nc2)c1`, under setting [1], the AC50 was 1.12 µM [falling, full curve, poor fit].

For the molecule `O=C(Cc1c[nH]c2ccccc12)Nc1nc2ccccc2[nH]1`, the AC50 under setting [1] is 14.1 µM [falling, partial curve].

Take `CC1CC(C)CN(CCC(=O)Nc2ccc3c(c2)CCC3)C1` (stereo unspecified): the AC50 under setting [1] was 6.31 µM [rising, single point].

As to `N#Cc1ccc(NC(=O)c2cc(=O)c3ccccc3o2)cc1`, under setting [1], the half-maximal activity concentration (AC50) was 0.794 µM [rising, full curve, poor fit].

Regarding `O=C(Nc1ccc(F)cc1)c1ccc(S(=O)(=O)N2CCCC2)cc1`, the AC50 under setting [1] is 1.41 µM [rising, partial curve, poor fit].

In the case of `Cc1ccc2cc(C(c3nnnn3C3CCCC3)N3CCN(c4ccc(F)cc4)CC3)c(=O)[nH]c2c1` (stereo unspecified), the AC50 under setting [1] was 10.3 µM [rising, partial curve, poor fit].

Regarding `C=CCn1c(=O)c2ccccc2n2c(Sc3nnnn3-c3ccccc3)nnc12`, the AC50 under setting [1] was 3.98 µM [falling, single point].

As to `COc1ccc(Br)c(-c2nc(CS(=O)(=O)c3ccc(F)cc3)no2)c1`, the AC50 under setting [1] was 1.58 µM [rising, partial curve, poor fit].

As to `Cc1ccc(CN2C(=NC(=O)CCC(=O)O)SC3CS(=O)(=O)CC32)cc1` (stereo unspecified), under setting [1], the AC50 was 6.31 µM [falling, full curve, poor fit].

Turning to `O=C(NCCc1ccccc1)c1ccc2c(c1)S(=O)(=O)N=C1CCCCCN12`, the AC50 under setting [1] is 13 µM [rising, partial curve, poor fit].

Turning to `O=C(Nc1ccccc1C(=O)N1CCOCC1)c1ccc(F)cc1`, the AC50 under setting [1] is 29.1 µM [rising, single point].

For `CCc1nc(Nc2ccc3c(c2)OCCO3)c2oc3ccccc3c2n1`, the AC50 under setting [1] is 6.51 µM [falling, full curve].

On to `O=C(c1ccco1)N1CCN(C(=O)C2CCCN(S(=O)(=O)c3cccc4nsnc34)C2)CC1` (stereo unspecified), for which, under setting [1], the AC50 is 32.6 µM [falling, single point].

Consider `COc1cc(/C=C(/C#N)c2nc3ccccc3[nH]2)ccc1OCc1ccc(C(=O)O)o1`, for which the AC50 under setting [1] is 12.6 µM [falling, partial curve, poor fit].

With `C=CCn1c(SCC(=O)NCC2CCCO2)nc2scc(-c3ccccc3)c2c1=O` (stereo unspecified), the AC50 under setting [1] is 35.5 µM [falling, single point].

`O=C(O)c1ccc2c(=O)n(-c3ccccc3)c(=S)[nH]c2c1`: the AC50 under setting [1] was 7.94 µM [falling, partial curve].

Consider `O=C(N/N=C/c1ccc(-c2ccc(Br)cc2)o1)c1ccc2c(c1)OCO2`, for which the AC50 under setting [1] is 22.4 µM [falling, single point].

Regarding `O=C(N/N=C/c1ccccn1)c1ccc(S(=O)(=O)N2CCCCCC2)cc1`, the AC50 under setting [1] was 39.8 µM [falling, partial curve, poor fit].

`O=C(Cn1nc(Cl)nc1Cl)c1cc2ccccc2oc1=O`: under setting [1], the AC50 is 17.8 µM [falling, single point].

For `Cc1ccc(S(=O)(=O)N(C)c2ccc(C(=O)NCCc3ccccc3)cc2)cc1`, under setting [1], the AC50 is 14.1 µM [rising, partial curve, poor fit].

On to `COC(=O)c1ccc(CC(=O)c2ccc(O)cc2O)o1`, for which the AC50 under setting [1] is 6.31 µM [falling, single point].

`CCOC(=O)c1nnc(-c2ccccc2)nc1Oc1ccccc1Cl`: under setting [1], the concentration at half-maximal activity (AC50) was 25.9 µM [falling, single point].

Consider `Cc1cc(C(=O)COC(=O)c2n[nH]c3ccccc23)c(C)n1C`, for which the AC50 was 1.84 µM [falling, full curve] under setting [1] and 2.91 µM [rising, partial curve, poor fit] under setting [2].

Turning to `COC(=O)c1ccc(NS(=O)(=O)c2cc(C)ccc2OC)cc1`, the AC50 under setting [1] was 0.0058 µM [falling, full curve, poor fit].

Take `CN1CCN(C(=S)SCC(=O)Nc2nc(-c3ccccc3)c(-c3ccccc3)o2)CC1`: the AC50 under setting [1] is 1.46 µM [falling, full curve].

Take `CN1C(=O)C2C(c3ccc(N(C)C)cc3)=NN(Cc3ccccc3)C2C1=O` (stereo unspecified): the AC50 under setting [1] is 11.2 µM [rising, partial curve, poor fit].

Turning to `CSCC[C@H](NC(=O)NCCc1ccc(F)cc1)C(=O)O`, the AC50 under setting [1] was 7.08 µM [rising, partial curve, poor fit].

Take `CCOC(=O)c1nc(Nc2ccc(C(=O)OC)cc2)c2ccccc2n1`: the AC50 under setting [1] was 2.82 µM [falling, full curve].

As to `Cc1nc(NC(=S)NC(=O)c2cncc(Br)c2)ccc1Br`, the AC50 under setting [1] was 6.31 µM [rising, partial curve, poor fit].

As for `CC(=O)Nc1ccc(NC(=O)COc2ccccc2C(=O)Nc2cccc(Cl)c2Cl)cc1`, under setting [1], the AC50 was 5.17 µM [rising, partial curve].

Regarding `CC(C)OCCCNC(=O)CCN1C(=O)COc2ccccc21`, the AC50 under setting [1] is 3.66 µM [rising, partial curve].

`Cc1ccc(C(=O)Nc2cccc(NC(=O)c3cccs3)c2)c(C)c1`: under setting [1], the AC50 was 5.62 µM [falling, partial curve].

As for `COc1cc(NS(=O)(=O)c2ccc(C)cc2)c2ncccc2c1`, the concentration at half-maximal activity (AC50) was 4.11 µM [falling, single point] under setting [1] and 5.8 µM [falling, single point] under setting [2].

`Cc1ccc(/C=N/NC(=O)c2ccc(OC3CCCC3)cc2)o1`: the AC50 under setting [1] is 35.5 µM [falling, single point].

As to `N#C/C=C(/N)c1ccc(Br)cc1`, the AC50 runs as follows: under setting [1], 16.4 µM [falling, partial curve, poor fit]; under setting [2], 10.3 µM [rising, partial curve, poor fit].

For the molecule `O=C(Nc1ccc(Oc2cccnc2)cc1)C1CCN(Cc2cc(Cl)ccc2O)CC1`, the AC50 under setting [1] was 35.5 µM [falling, single point].

For the molecule `Nc1nc(Nc2ccccc2Cl)cc(=O)[nH]1`, the AC50 under setting [1] was 35.5 µM [falling, partial curve, poor fit].

In the case of `COCCNC(=O)c1cccc(Nc2nc(-c3ccccc3)c3cc(Cl)ccc3n2)c1`, the AC50 under setting [1] is 4.61 µM [falling, single point].

For the molecule `Cc1ccsc1C(=O)NNC(=O)c1csc(N2CCOCC2)n1`, the AC50 under setting [1] was 6.51 µM [falling, single point].

Take `CC1(C)OC(=O)N(c2ccccc2)C12C=Cc1cc(Br)ccc1O2` (stereo unspecified): the AC50 under setting [1] was 29.1 µM [falling, single point].

Regarding `Cc1ccsc1CNCc1cc(Cl)ccc1O`, under setting [1], the AC50 was 2.06 µM [rising, partial curve, poor fit].

`CC1CCCC(NC(=O)c2cc(S(=O)(=O)N3CCCCC3)ccc2Cl)C1C` (stereo unspecified): the AC50 under setting [1] was 16.4 µM [falling, single point].

In the case of `CCCC[C@]12Cc3cc(C#N)ccc3C(O1)c1c(cc(C)n(Cc3ccccc3)c1=O)O2`, under setting [1], the AC50 is 1.12 µM [falling, partial curve, poor fit].

In the case of `COc1ccc(C(=O)NC(=S)NNC(=O)c2ccc(O)cc2)cc1[N+](=O)[O-]`, the AC50 under setting [1] was 0.251 µM [falling, full curve].

Take `CN(CC(=O)Nc1ccc(Cl)cc1)CC(=O)Nc1ccc(F)c(F)c1F`: under setting [1], the AC50 is 9.2 µM [falling, partial curve, poor fit].

On to `COc1cccc2cc(-c3nc(-c4cccs4)cs3)c(=O)oc12`, for which, under setting [1], the AC50 was 6.31 µM [falling, partial curve, poor fit].

Consider `Cc1ccccc1N=C1c2ccccc2C(=O)C1[N+](=O)[O-]` (stereo unspecified), for which the AC50 under setting [1] is 20 µM [falling, single point].

Regarding `C/C(=N\NS(=O)(=O)c1ccc(C)c([N+](=O)[O-])c1)c1cc2ccccc2o1`, the AC50 under setting [1] was 16.4 µM [falling, partial curve, poor fit].

For `O=C1CC[C@H](N2C(=O)c3ccccc3C2=O)C(=O)N1`, under setting [1], the half-maximal activity concentration (AC50) is 25.9 µM [rising, partial curve, poor fit].

In the case of `Cc1cc2ccccc2c(=O)n1CC(=O)NCC(=O)N1CCCC(C)C1` (stereo unspecified), under setting [1], the AC50 was 29.1 µM [rising, single point].

The values above are taken from PubChem BioAssay AID493014 (National Center for Advancing Translational Sciences (NCATS), 2011).
